# Record: PubChem BioAssay AID652272 (Drosophila RNAi Screening Center, 2013)
# Assay: 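Finding fly genes that regulate Hedgehog signal transduction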 (primary screen)
# Cells: Drosophila clone 8 (Cl8) cells
# Knock-down reagent: long dsRNA against Drosophila genes
# Detection: 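Plate reader light from a firefly reporter under a ptc promoter fragment that responds to Hedgehog, with Renilla light as transfection reference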
# Direction: firefly Hh reporter signal: higher = more ptc reporter light; Renilla reference signal: higher = more Renilla control light
# Hit rule: 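Hit when the z-score averaged over two replicates is under -2 or over +3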
# Calls: active = hit: reporter lowered or raised; inactive = not a hit
# The screen tested about 21,000 reagents; this is an unselected part of those that have a named target and a result. In the full data, 503 (2.4%) got an active call. 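Raw plate light values, not normalised; calls rest on replicate z-scores that were not deposited; hits include reporter decreases as well as increases.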 Names joined by + are all predicted targets of the reagent. Not stated in the record: the amount of reagent, the time to read-out.
gene,DRSC id,"firefly Hh reporter signal, replicate 1","firefly Hh reporter signal, replicate 2","firefly Hh reporter signal, replicate 3","Renilla reference signal, replicate 1","Renilla reference signal, replicate 2",Call
Mon1,DRSC00336,1.14e5,45805,,3104,4969,inactive
wisp,DRSC19703,1.50e5,83036,,3063,2032,inactive
CG14440,DRSC17933,45776,1.47e5,,1664,6166,inactive
djl,DRSC12578,81016,1.03e5,,3129,3155,inactive
gkt + CR31953,DRSC00709,89571,73736,,3837,3221,inactive
Reg-5,DRSC04647,91901,53091,,3672,1495,inactive
CG16825,DRSC02526,1.02e5,42608,,2150,3741,inactive
nrm,DRSC11597,1.97e5,,,4835,,inactive
nrm,DRSC11599,2.00e5,,,3979,,inactive
nrm,DRSC11897,78016,99157,,2544,2749,inactive
Mpp6,DRSC03169,70864,44564,,2141,4616,inactive
CG18343,DRSC06726,74418,48027,,1702,3493,inactive
CG14478,DRSC06450,94598,41499,,2561,3264,inactive
DIP-delta,DRSC10214,53723,65147,,6216,4400,inactive
DIP-delta,DRSC10450,90456,89307,,7712,5450,inactive
CG1552,DRSC19665,96250,1.97e5,,2577,8331,inactive
CG18281,DRSC11742,1.60e5,1.17e5,,5939,4572,inactive
HP1c,DRSC16166,1.23e5,6.65e5,1.05e5,5520,39698,inactive
Muc18B,DRSC20064,1.21e5,3.39e5,,3505,13388,inactive
pps,DRSC16057,98377,1.27e5,,2023,1801,inactive
CG6051,DRSC15956,1.39e5,86198,,3303,1850,inactive
Trf2,DRSC18727,72429,1.60e5,,2669,5922,inactive
Pxn,DRSC08685,2.34e5,1.52e5,,8582,6200,inactive
Dlic,DRSC19824,1.15e5,82934,,2795,2000,inactive
FASN3,DRSC20882,62546,1.97e5,,1372,7941,inactive
CG13694,DRSC00363,1.33e5,1.12e5,,3244,2720,inactive
CG6356,DRSC16026,4.04e5,73595,,23065,2715,inactive
CG14974,DRSC08433,78140,45088,,2138,2960,inactive
pns,DRSC08598,65764,55253,,2221,4812,inactive
CG3520,DRSC04383,86204,53987,,2288,4546,inactive
GILT2,DRSC14196,1.17e5,1.04e5,,5461,3744,inactive
CG9812,DRSC04566,94053,39962,,2665,4120,inactive
CG12520,DRSC09892,48788,29242,45905,2818,3211,inactive
Apc2,DRSC14115,1.25e5,60471,,5121,2869,inactive
CG15144,DRSC02445,89409,64626,,2530,6149,inactive
CG34107,DRSC14554,1.29e5,2.09e5,,3648,5680,inactive
CAH1 + Adat1,DRSC02009,59555,53794,,2513,2523,inactive
CG12998,DRSC19518,88342,2.14e5,,1505,8360,inactive
wnd,DRSC09626,4.22e5,,,8880,,inactive
wnd,DRSC11046,60800,89728,,2674,3367,inactive
CG18766,DRSC15936,1.09e5,65619,,2829,1611,inactive
CG6236,DRSC15999,90685,80521,,3581,3395,inactive
CG11417,DRSC18581,52227,72827,,917,2084,inactive
CG43136,DRSC17417,4.29e5,1.75e5,,25973,3976,inactive
cyst,DRSC02023,76825,55728,,4052,2640,inactive
et,DRSC19582,88869,2.59e5,,3312,11058,inactive
Orai,DRSC05684,1.07e5,2.44e5,,3333,10242,inactive
UGP + PGRP-LF,DRSC10418,26006,59408,72119,3994,5536,inactive
CG34204,DRSC03897,1.07e5,1.69e5,,2672,6828,inactive
CG8093,DRSC07078,74256,55161,,2218,3500,inactive
Mrp5,DRSC15597,5.85e5,93016,,29238,2771,inactive
Mrp5,DRSC15598,6.30e5,1.52e5,,32460,4389,inactive
CG44251,DRSC06856,92637,34544,,2359,2813,inactive
mfas,DRSC16997,1.10e5,70624,,4317,2677,inactive
ND-23,DRSC15526,96853,84151,,3347,3138,inactive
GC1,DRSC15322,1.03e5,1.04e5,,4417,2077,inactive
Hers + amn,DRSC20306,75223,1.63e5,,1305,7994,inactive
mrn,DRSC10913,72529,48962,,2790,1924,inactive
CG13842,DRSC14692,5.54e5,83859,,24522,2074,inactive
tum,DRSC07575,1.12e5,60016,,3142,4551,inactive
Idgf2,DRSC03350,79097,54075,,3682,2304,inactive
Blm,DRSC16911,1.47e5,89317,,6505,3724,inactive
Larp7,DRSC18798,65226,1.70e5,,2533,6500,inactive
IntS4,DRSC17810,83240,92317,,2336,2769,inactive
Sh,DRSC19214,2.51e5,41056,,17377,1712,active
Sh,DRSC19220,7.86e5,3.04e5,,49555,7541,inactive
Sh,DRSC19785,1.15e5,2.15e5,,4298,7851,inactive
Sh,DRSC20055,82240,3.17e5,,3056,13077,inactive
cl,DRSC02118,1.20e5,98320,,4713,3954,inactive
CG8837,DRSC00711,1.01e5,42997,,2485,4652,inactive
CG10280,DRSC12133,86699,1.30e5,,3387,4196,inactive
l(2)k10201,DRSC06439,1.35e5,66443,,3330,5717,inactive
l(2)k10201,DRSC07640,1.09e5,54736,,2515,4650,inactive
